Publication PMC5813005
Results are given in words; binding and its absence hold for the method and conditions named. Binding seen in cells or lysates may run through a third protein. For part of these data: A result given as binding can be weak or reduced; the word gives no strength. For part of these data: Tags and fused reporters may be left off the sequences shown.

Sequences of proteins named here, by UniProt entry; tags and fusion partners are left off. A change or cut given only in a name is not applied to a line headed by its entry.
UniProt P00860: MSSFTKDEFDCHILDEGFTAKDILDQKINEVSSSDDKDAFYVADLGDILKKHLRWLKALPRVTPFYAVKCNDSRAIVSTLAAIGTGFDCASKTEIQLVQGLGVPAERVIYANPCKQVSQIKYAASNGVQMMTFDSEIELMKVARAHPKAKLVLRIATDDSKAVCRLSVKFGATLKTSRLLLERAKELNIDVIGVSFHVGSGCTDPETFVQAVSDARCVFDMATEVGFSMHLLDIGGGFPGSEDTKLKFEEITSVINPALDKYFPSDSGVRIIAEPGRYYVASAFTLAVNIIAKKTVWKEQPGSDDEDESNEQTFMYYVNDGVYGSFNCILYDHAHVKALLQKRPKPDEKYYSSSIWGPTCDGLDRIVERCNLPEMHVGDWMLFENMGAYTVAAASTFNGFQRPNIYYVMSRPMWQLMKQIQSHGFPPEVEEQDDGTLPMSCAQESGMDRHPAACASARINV
UniProt P54369: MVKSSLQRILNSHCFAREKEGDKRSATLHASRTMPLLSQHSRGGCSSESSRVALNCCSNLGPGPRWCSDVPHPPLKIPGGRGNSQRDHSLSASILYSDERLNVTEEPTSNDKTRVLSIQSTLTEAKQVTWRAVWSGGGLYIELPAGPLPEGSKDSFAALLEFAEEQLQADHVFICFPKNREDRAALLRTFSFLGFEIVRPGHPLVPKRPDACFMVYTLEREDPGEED
UniProt P01108: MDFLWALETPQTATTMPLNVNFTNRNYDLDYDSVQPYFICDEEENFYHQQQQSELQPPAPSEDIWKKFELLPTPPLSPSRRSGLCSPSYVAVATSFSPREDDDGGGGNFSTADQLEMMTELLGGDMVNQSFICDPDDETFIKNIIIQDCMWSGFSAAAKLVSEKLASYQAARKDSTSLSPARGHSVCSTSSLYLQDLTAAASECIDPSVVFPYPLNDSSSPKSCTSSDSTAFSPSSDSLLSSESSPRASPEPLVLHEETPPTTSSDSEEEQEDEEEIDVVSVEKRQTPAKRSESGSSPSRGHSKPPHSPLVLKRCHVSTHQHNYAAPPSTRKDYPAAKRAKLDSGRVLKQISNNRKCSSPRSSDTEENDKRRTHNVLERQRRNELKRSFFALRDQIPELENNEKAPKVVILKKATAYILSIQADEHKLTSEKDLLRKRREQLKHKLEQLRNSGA

How the values were obtained:
Assay in all cases: co-IP; 293-F cells co-expressing HA-tagged and FLAG-tagged proteins, lysed in M-PER; anti-FLAG (M2)-agarose, 4 °C overnight; bound proteins detected by anti-HA immunoblot
[1] = target: T1, FLAG-AZ2 (FLAG-tagged antizyme 2) (mouse) (UniProt O08608)
T1 sequence: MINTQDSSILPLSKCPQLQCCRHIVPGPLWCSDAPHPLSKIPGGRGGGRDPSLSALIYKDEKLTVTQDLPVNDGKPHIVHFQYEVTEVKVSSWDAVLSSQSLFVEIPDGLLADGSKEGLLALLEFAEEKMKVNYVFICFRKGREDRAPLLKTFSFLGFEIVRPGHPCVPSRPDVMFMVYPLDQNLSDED

[2] = target: FLAG-ODC (FLAG-tagged ornithine decarboxylase) (mouse) (UniProt P00860)
[3] = target: FLAG-AZ1 (FLAG-tagged antizyme 1) (mouse) (UniProt P54369)

Q: With “HA-c-Myc (hemagglutinin epitope-tagged c-Myc) (from UniProt P01108)” as the substance, how does the binding [1] read?
A: binds

Q: And the binding [2]?
A: no binding

Q: What about the binding [3] of the same substance?
A: binds
